Results: patent US20250074980A1 (BRIGHAM AND WOMEN S HOSPITAL, published 2025)
Results are given in words; binding and its absence hold for the method and conditions named. Some entries that bind do so weakly or less than the wild type.

T1: CEACAM1 on transfected HeLa cells (human, UniProt P13688 35-526)
T1 construct: also called HeLa-CEACAM1; HeLa C1
T1 sequence: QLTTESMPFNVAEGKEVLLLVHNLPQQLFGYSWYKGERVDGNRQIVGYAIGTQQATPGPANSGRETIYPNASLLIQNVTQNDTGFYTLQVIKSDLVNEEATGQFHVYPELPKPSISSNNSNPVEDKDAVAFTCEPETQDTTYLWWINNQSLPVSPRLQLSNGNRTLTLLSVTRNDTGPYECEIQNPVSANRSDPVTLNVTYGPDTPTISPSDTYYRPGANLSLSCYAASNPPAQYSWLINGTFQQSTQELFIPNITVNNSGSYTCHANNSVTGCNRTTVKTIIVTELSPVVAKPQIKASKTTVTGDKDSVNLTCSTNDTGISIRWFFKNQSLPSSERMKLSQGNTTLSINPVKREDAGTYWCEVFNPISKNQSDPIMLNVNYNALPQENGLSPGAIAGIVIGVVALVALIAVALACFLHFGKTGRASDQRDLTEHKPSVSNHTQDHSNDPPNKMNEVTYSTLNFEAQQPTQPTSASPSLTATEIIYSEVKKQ

T2: His-tagged CEACAM1 (human, UniProt P13688 35-428)
T2 construct: 45 kDa SPR analyte; also called CEACAM1-HIS; CEACAM1 analyte
T2 sequence: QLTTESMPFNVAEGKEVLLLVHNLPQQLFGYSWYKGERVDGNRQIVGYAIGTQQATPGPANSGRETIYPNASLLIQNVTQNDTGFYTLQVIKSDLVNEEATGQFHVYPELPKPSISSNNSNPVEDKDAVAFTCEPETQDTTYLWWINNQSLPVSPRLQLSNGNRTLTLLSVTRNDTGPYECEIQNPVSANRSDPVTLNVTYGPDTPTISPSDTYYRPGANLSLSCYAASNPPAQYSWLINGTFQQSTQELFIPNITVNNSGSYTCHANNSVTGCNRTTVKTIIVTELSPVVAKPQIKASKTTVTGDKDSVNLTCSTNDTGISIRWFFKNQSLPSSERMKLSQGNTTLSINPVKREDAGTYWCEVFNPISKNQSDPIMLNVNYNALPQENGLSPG


Key:
[1] = biological target: T1, CEACAM1 on transfected HeLa cells; experiment: flow cytometry, transfected HeLa
[2] = biological target: T1, CEACAM1 on transfected HeLa cells; experiment: flow cytometry, HeLa-CEACAM1 transfectants, % staining, stacked bars
[3] = biological target: T1, CEACAM1 on transfected HeLa cells; experiment: flow cytometry titration, HeLa-CEACAM1 transfectants, anti-human IgG4 FITC
[4] = biological target: T1, CEACAM1 on transfected HeLa cells; experiment: flow cytometry contour plots, HeLa-CEACAM1 transfectants, anti-human IgG4 FITC
[5] = biological target: CEACAM-1 (Homo sapiens) (UniProt P13688); experiment: three-point binding ELISA on coated CEACAM-1, anti-human kappa chain antibody and TMB
[6] = biological target: T2, His-tagged CEACAM1; experiment: SPR and ELISA (FIGS. 12A-12C)
[7] = biological target: T2, His-tagged CEACAM1; experiment: SPR single-cycle kinetics, antibody captured on Protein A, CEACAM-1 injected at three rising concentrations
[8] = biological target: tagless CEACAM1 expressed in E. coli (crystallised) (human) (UniProt P13688); experiment: crystal structure of the complex, 3.3 Å

| binding [1] | binding [2] | binding [3] | binding [4] | binding [5] | binding [6] | binding [7] | binding [8] | Binder |
| --- | --- | --- | --- | --- | --- | --- | --- | --- |
| binds | binds | binds | binds | binds | binds | binds | – | CP08H03/Vκ8 S29A (antibody, IgG4, V domains shown, IgG4 (S241P), kappa; also called CP08_H03/Parent VL; CP08_H03/Parental) VH: EVQLLESGGGLVQPGGSLRLSCAASGFIFSSHGMSWVRQAPGKGLEWVATISSGGTYTYYPDSVKGRFTISRDNSKNTLYLQMNSLKAEDTAMYYCARHDFDYFPYWFAHWGQGTLVTVSS VL: EIVLTQSPATLSLSPGERATLSCRANSAVSYMYWYQQKPGQAPRPWIYLTSNRATGVPARFSGSGSGTDYTLTISSLEPEDFAVYYCQQWSSNPPTFGQGTKLEIK |
| – | – | – | – | – | – | – | binds | CP08H03/Vκ8 S29A Fab (Fab, V domains shown) VH: EVQLLESGGGLVQPGGSLRLSCAASGFIFSSHGMSWVRQAPGKGLEWVATISSGGTYTYYPDSVKGRFTISRDNSKNTLYLQMNSLKAEDTAMYYCARHDFDYFPYWFAHWGQGTLVTVSS VL: EIVLTQSPATLSLSPGERATLSCRANSAVSYMYWYQQKPGQAPRPWIYLTSNRATGVPARFSGSGSGTDYTLTISSLEPEDFAVYYCQQWSSNPPTFGQGTKLEIK |
